Measurements as given in patent US20230050972A1.

How the values were obtained:
α11β1 Headpiece [1] = experiment: SPR, single-cycle injections of 33, 100 and 300 nM over the a11b1 Headpiece
α11β1 Headpiece [2] = experiment: SPR

binding (α11β1 Headpiece [1])	binding (α11β1 Headpiece [2])	Binder
binds	–	9-G05 (antibody, V domains shown) VH: EVQLQQSGPELVKPGASVKIPCKASGYTFPDYNMDWVKQSHGKSLEWIGYINPDNGGTIYNQKFKGKATLTVDKSSSTAYMELRSLTSEDTAVYYCARLDSSGYGYYAMDYWGQGTSVTVSS VL: DIVLTQSPASLAVSLGQRATISCRASESVDNYGISFMHWYQQKPGQPPKLLIYRASNLDSEIPARFSGSGSRTDFTLTIDPVETDDVATYYCQQSYKDPRTFGGGTKLEIK
binds	–	79E3E3 (antibody, V domains shown) VH: QIQLVQSGPEVKKPGESVKISCKASGYTFTDYAMNWVKQAPGNGLKWMGWINTQTGKPTYADDFKQRFVFSLETSARTTYLQINNLNIEDTATYFCTRLGTGNTKGFAYWGQGTLVTVSS VL: DILINQSPASLTVSAGERVTMSCKSSQSLLYSENNQDYLAWYQQKPGQFPKLLIYGASNRHTGVPDRFTGSGSGTDFTLTISSVQAEDLADYYCEQTYRYPFTFGSGTKLEIK
no binding (tested: 300 nM)	no binding	A11B1_16E10 (antibody, V domains shown) VH: QSLEESGGDLVKPGASLTLTCRVSGFSFSSSYYMCWVRQAPGKGLEWIACIGTTRGSTYYATWAKGRFTISKISSTTVTLQMTSLTDADTATYFCARDATGYRINTIGLYFNLWGPGTLVTVSS VL: AFELTQTPSSVEAAVGGTPTIKCQASQTIYSYLSWYQQKPGQPPKLLIYEASKLASGVPSRFSGSGSGTDYTLTISDLECADAATYYCQSYHGTASTEYNTFGGGTEVVVRG
no binding (tested: 300 nM)	no binding	1994_01_C07 (antibody, V domains shown) VH: QVQLVQSGAEVKKPGASVKVSCKASGYTFTSYGISWVRQAPGQGLEWMGWISAYNGNTNYAQKLQGRVTMTTDTSTSTAYMELRSLRSDDTAAYYCARVTGITGTTIDPWGQGTMVTVSS VL: DIQMTQSPSSLSASVGDRVTITCRASQSISSYLNWYQQKPGKAPKLLIYDASSLESGVPSRFSGSGSGTEFTLTISSLQPDDFAVYYCQQYNNWPQTFGQGTKVEIK

These are yes or no findings as the source states them, for the method shown. For part of these data: A result given as binding can be weak or reduced; the word gives no strength.
